Results published in the supplement of paper PMC7666118.
The other results are listed elsewhere or left out.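 How the source made its calls: active = dose-dependent thermal stabilisation significant by F-test of dose-response against flat model at 10% FDR; inactive = not significant.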

Sequences of proteins named here, by UniProt entry; tags and fusion partners are left off. A change or cut given only in a name is not applied to a line headed by its entry.
UniProt Q9Y450, whole entry: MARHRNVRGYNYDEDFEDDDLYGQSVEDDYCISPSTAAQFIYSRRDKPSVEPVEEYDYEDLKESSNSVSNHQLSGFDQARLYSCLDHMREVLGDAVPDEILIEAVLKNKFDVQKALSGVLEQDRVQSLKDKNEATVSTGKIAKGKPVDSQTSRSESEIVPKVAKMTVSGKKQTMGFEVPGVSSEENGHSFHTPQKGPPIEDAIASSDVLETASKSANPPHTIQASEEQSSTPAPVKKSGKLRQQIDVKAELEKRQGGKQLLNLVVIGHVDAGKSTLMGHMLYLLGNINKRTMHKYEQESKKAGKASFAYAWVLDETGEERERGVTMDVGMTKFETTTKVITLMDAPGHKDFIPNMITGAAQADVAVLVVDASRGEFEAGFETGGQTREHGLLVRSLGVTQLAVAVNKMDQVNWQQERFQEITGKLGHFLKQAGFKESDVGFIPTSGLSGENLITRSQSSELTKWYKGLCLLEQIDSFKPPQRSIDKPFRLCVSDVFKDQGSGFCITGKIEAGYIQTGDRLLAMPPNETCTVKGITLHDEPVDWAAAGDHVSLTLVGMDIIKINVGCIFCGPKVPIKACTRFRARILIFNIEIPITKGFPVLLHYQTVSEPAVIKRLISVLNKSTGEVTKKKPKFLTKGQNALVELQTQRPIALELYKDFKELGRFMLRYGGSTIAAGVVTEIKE
UniProt Q9ULT8: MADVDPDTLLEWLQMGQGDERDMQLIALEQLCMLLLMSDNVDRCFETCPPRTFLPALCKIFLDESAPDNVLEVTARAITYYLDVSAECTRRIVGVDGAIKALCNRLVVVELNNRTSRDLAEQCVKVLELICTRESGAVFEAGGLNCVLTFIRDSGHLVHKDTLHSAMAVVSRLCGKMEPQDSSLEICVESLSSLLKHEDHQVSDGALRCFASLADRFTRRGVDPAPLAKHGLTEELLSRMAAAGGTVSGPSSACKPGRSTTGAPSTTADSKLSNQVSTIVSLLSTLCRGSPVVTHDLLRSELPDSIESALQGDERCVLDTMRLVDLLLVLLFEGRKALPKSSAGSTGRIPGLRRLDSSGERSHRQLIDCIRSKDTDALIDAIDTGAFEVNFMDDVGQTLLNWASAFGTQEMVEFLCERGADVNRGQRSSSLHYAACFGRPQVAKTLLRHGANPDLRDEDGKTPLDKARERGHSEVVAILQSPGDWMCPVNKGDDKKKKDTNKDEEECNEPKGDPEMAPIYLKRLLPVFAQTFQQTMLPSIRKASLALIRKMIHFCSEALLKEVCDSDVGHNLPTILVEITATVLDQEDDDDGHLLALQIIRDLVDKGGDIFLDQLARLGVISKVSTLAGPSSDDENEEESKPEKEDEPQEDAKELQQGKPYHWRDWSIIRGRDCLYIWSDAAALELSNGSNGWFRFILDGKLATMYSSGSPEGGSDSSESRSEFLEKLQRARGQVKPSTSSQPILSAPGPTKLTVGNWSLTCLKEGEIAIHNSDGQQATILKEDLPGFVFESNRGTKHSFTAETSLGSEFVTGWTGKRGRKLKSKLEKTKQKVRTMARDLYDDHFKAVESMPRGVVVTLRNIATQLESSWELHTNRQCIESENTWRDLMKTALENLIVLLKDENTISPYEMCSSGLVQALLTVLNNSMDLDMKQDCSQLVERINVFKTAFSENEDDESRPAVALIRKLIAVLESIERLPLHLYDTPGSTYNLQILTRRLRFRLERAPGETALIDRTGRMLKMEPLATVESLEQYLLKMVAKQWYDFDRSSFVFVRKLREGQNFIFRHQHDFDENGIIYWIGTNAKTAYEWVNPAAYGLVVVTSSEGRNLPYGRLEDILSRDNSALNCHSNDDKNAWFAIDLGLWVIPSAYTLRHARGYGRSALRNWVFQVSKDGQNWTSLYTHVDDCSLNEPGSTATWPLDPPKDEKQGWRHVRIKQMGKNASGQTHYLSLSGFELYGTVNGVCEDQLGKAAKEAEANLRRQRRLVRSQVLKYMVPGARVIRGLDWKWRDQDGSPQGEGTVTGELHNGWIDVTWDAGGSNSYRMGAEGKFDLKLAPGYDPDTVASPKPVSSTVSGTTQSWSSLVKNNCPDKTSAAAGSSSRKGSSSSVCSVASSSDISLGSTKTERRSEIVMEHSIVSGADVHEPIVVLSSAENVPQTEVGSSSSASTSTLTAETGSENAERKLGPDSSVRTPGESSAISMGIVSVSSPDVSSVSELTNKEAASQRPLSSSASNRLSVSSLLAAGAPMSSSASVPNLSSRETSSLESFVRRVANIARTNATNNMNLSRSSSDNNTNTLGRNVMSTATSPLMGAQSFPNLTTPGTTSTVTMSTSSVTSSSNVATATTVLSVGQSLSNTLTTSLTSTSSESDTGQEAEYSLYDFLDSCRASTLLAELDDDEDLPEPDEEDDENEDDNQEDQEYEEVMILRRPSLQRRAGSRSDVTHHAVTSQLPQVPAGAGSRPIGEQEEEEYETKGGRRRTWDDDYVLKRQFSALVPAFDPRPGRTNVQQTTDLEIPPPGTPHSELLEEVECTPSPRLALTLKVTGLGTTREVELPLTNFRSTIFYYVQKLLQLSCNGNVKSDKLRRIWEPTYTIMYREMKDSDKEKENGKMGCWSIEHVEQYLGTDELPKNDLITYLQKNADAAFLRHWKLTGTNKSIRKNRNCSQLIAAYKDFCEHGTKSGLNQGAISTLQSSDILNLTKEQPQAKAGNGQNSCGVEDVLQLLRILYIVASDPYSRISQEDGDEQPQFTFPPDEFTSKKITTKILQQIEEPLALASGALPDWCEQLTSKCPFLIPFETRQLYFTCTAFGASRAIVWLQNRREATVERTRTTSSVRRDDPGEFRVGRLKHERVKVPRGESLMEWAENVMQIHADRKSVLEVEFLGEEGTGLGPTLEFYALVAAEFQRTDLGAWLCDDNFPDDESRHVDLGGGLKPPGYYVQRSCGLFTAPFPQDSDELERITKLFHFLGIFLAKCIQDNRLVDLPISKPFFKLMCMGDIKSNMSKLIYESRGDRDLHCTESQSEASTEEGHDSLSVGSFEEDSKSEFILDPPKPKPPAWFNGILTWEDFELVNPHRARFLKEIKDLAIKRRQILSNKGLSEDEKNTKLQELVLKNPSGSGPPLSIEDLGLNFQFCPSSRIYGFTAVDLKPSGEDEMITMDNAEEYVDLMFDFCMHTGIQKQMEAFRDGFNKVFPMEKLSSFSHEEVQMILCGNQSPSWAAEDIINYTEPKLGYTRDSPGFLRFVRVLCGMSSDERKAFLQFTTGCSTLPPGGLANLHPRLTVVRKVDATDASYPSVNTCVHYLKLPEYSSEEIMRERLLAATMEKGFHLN
UniProt Q13151: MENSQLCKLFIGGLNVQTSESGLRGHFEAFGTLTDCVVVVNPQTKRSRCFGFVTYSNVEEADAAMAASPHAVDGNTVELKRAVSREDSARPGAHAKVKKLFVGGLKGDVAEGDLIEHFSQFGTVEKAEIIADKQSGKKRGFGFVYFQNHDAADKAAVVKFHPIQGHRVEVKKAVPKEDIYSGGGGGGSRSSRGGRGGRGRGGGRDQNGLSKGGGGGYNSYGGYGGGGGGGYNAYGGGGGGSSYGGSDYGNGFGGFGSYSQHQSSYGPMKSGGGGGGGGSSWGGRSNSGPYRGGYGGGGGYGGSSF
UniProt Q9BX68: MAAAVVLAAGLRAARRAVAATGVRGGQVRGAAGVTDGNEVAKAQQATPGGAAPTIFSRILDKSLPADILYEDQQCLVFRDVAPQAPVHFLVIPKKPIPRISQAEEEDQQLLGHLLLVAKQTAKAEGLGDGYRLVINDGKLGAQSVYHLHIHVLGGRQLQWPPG
UniProt Q13547, whole entry: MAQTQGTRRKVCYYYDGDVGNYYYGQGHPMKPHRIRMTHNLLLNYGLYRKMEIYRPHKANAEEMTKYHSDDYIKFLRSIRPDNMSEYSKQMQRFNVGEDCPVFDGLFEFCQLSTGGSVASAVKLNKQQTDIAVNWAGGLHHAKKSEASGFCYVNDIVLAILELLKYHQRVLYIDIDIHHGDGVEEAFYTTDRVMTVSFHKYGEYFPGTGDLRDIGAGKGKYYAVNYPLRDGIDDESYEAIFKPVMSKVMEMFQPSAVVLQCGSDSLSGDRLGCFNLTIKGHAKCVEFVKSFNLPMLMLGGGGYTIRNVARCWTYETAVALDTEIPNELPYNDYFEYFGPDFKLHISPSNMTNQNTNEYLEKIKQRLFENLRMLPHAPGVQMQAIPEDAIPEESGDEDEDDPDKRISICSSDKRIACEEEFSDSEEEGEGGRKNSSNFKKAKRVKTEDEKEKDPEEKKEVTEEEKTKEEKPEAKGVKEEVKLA
UniProt Q99729: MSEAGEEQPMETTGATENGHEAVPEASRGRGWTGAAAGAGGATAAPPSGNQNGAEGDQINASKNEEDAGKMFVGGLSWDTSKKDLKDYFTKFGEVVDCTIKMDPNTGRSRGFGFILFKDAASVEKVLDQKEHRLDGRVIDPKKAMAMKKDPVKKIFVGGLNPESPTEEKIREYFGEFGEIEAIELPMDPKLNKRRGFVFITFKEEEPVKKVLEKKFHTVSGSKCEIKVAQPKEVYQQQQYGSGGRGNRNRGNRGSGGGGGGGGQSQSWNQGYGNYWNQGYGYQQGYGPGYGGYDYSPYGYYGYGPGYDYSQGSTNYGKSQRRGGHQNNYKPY
UniProt P17900: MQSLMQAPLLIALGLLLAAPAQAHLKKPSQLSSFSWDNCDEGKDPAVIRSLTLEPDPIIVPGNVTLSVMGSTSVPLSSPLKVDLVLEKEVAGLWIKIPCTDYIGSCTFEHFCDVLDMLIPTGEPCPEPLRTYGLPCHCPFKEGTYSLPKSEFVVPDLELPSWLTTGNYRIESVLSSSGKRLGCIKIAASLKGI
UniProt P30519: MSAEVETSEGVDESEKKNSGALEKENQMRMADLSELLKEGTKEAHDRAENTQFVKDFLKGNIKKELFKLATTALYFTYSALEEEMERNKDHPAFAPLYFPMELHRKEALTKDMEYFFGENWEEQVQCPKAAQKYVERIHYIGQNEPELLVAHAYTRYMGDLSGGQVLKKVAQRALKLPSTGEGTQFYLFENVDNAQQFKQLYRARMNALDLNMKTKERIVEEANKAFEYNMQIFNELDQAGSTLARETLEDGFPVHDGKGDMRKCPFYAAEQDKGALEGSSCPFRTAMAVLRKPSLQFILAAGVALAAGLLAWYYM
UniProt Q9P0W2: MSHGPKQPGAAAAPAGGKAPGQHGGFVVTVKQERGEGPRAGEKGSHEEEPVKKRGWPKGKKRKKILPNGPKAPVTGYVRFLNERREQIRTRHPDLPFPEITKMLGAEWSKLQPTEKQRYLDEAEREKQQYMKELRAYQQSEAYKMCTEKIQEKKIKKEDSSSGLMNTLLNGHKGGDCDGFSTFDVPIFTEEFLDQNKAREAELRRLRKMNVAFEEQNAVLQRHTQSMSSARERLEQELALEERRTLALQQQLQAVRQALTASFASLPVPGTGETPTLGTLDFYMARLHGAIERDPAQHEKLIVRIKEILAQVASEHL
UniProt P62993, whole entry, looked up: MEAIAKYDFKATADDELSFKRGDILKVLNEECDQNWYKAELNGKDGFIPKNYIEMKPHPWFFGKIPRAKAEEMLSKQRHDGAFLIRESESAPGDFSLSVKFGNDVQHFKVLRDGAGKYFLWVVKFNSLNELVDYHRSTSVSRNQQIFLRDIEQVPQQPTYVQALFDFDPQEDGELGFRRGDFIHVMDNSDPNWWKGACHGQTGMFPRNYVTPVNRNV
UniProt Q9BYB4: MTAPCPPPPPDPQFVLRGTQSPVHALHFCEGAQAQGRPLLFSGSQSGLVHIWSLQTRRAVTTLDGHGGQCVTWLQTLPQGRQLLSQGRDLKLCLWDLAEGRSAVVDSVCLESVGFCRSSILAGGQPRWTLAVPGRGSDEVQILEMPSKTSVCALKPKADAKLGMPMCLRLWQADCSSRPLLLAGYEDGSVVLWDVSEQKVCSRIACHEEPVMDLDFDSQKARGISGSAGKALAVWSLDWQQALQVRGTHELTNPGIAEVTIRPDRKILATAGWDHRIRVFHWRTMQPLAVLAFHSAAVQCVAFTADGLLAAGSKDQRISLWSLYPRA
UniProt Q15651: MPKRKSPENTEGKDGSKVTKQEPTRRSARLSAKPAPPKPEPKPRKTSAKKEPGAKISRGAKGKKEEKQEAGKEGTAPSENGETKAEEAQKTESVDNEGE
UniProt P78417: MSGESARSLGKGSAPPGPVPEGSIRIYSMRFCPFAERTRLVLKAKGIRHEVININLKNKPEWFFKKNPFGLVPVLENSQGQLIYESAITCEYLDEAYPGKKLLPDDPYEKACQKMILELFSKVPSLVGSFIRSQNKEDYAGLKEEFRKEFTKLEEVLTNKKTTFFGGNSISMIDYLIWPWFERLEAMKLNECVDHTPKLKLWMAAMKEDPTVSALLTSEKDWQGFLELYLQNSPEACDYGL
UniProt P82970: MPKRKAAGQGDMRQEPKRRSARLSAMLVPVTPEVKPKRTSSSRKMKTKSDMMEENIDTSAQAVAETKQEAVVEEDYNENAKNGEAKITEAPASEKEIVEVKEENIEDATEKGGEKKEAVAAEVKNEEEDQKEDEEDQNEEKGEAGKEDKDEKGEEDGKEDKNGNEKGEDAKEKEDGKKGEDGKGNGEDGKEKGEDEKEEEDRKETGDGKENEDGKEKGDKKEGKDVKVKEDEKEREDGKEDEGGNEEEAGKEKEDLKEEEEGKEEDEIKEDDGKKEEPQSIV

Compound: Nc1nc2c(ncn2[C@@H]2O[C@H](COP(=O)(O)OP(=O)(O)OP(=O)(O)O)[C@@H](O)[C@H]2O)c(=O)[nH]1
Experiment: dose-dependent thermal stabilisation call (2D-TPP, DLPTP, 10% FDR) (binary (1 = stabilised)); higher = stabilised by the compound
Conditions: system: Jurkat gel-filtered lysate; concentration range 1-500 µM

| Target | dose-dependent thermal stabilisation call |
| --- | --- |
| GMPS (UniProt P49915) | inactive: 0 |
| HBS1L (UniProt Q9Y450) | active: 1 |
| GTF2B (UniProt Q00403) | active: 1 |
| GPS1 (UniProt Q13098) | inactive: 0 |
| HDGFL2 (UniProt Q7Z4V5) | inactive: 0 |
| GANAB (UniProt Q14697) | inactive: 0 |
| GDPGP1 (UniProt Q6ZNW5) | inactive: 0 |
| HECTD1 (UniProt Q9ULT8) | inactive: 0 |
| HNRNPA0 (UniProt Q13151) | inactive: 0 |
| GPHN (UniProt Q9NQX3) | inactive: 0 |
| GTPBP3 (UniProt Q969Y2) | active: 1 |
| HINT2 (UniProt Q9BX68) | inactive: 0 |
| GATAD2B (UniProt Q8WXI9) | inactive: 0 |
| HDAC1 (UniProt Q13547) | inactive: 0 |
| GART (UniProt P22102) | inactive: 0 |
| HNRNPAB (UniProt Q99729) | inactive: 0 |
| GPATCH11 (UniProt Q8N954) | inactive: 0 |
| GM2A (UniProt P17900) | inactive: 0 |

As a working copy, some entries already given.

| Target | dose-dependent thermal stabilisation call |
| --- | --- |
| HNRNPA0 (UniProt Q13151) | inactive: 0 |
| GPHN (UniProt Q9NQX3) | inactive: 0 |

(list continues)

| Target | dose-dependent thermal stabilisation call |
| --- | --- |
| HMOX2 (UniProt P30519) | inactive: 0 |
| GAMT (UniProt Q14353) | inactive: 0 |
| HMG20B (UniProt Q9P0W2) | inactive: 0 |
| HNRNPA2B1 (UniProt P22626) | inactive: 0 |
| GMFG (UniProt O60234) | inactive: 0 |
| GMFB (UniProt P60983) | inactive: 0 |
| GRIPAP1 (UniProt Q4V328) | inactive: 0 |
| GRB2 (UniProt P62993) | inactive: 0 |
| GNB1 (UniProt P62873) | inactive: 0 |
| GPI (UniProt P06744) | inactive: 0 |
| GNB1L (UniProt Q9BYB4) | inactive: 0 |
| HMGN3 (UniProt Q15651) | inactive: 0 |
| HNRNPF (UniProt P52597) | inactive: 0 |
| GSTO1 (UniProt P78417) | active: 1 |
| HMGN5 (UniProt P82970) | inactive: 0 |
| GEMIN7 (UniProt Q9H840) | inactive: 0 |
| GLO1 (UniProt Q04760) | inactive: 0 |
| GPBP1L1 (UniProt Q9HC44) | inactive: 0 |
